Results are given in words; binding and its absence hold for the method and conditions named. In cells and extracts the contact can be indirect. A yes stands for co-enrichment or nearness to the bait. Other partners may have been found.
Target: T1, Nuclear Respiratory Factor 1 (NRF1) (UniProt Q16656)
T1 sequence (looked up): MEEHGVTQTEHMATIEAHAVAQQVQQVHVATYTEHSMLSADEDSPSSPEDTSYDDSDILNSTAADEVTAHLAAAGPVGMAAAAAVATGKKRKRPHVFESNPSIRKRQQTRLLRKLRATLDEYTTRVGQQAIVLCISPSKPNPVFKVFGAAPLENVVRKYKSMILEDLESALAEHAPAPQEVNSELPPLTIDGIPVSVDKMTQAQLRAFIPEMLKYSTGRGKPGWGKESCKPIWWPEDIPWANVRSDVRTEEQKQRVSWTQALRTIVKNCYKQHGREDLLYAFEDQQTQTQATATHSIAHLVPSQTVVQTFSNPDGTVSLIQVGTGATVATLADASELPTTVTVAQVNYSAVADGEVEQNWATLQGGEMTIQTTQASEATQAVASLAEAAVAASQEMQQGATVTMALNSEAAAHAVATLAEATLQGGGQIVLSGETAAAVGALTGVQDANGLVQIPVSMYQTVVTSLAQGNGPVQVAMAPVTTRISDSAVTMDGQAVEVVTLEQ
Experiment: co-immunoprecipitation from 293T cells (Flag-resin); also affinity purification and mass spectrometry of the Flag-SIRT7 interactome

Protein sequences, listed by entry. Tags and fused reporters are not part of them.
UniProt Q9NRC8: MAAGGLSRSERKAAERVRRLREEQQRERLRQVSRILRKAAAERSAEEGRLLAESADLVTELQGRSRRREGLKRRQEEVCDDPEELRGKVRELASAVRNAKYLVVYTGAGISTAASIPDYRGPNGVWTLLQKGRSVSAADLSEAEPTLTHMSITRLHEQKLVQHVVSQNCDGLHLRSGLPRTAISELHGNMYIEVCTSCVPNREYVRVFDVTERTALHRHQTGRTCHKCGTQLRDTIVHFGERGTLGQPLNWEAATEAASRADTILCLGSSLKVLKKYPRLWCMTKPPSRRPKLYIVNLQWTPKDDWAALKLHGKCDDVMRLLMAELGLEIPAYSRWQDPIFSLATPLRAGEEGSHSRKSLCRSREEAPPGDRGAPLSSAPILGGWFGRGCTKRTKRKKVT

- binding: binds
Substance: Flag-tagged SIRT7 (from UniProt Q9NRC8 1-400) (enzyme)
